Results are given in words; binding and its absence hold for the method and conditions named. Binding can be weak; no strength is given.
How the values were obtained:
[1] = target: Hsp90 conjugated with DyLight 633; assay: flow cytometry, IgG displayed on HEK293 cells, Hsp90-DyLight 633 (column Chaperones)
[2] = target: Hsp90 conjugated with DyLight 633; assay: flow cytometry of HEK293 cells displaying the IgG, double-stained with Hsp90-DyLight 633 and anti-human Fc PE
[3] = target: Hsp70 conjugated with DyLight 633; assay: flow cytometry, IgG displayed on HEK293 cells
[4] = target: Hsp90 conjugated with DyLight 633; assay: flow cytometry, IgG displayed on HEK293 cells
[5] = target: Hsp90 conjugated with DyLight 633; assay: flow cytometry of HEK293 cells displaying the IgG, stained with Hsp90-DyLight 633
[6] = target: Hsp70 conjugated with DyLight 633; assay: flow cytometry of HEK293 cells displaying the IgG, stained with Hsp70-DyLight 633
[7] = target: Hsp70 conjugated with DyLight 633; assay: flow cytometry, IgG displayed on HEK293 cells, Hsp70-DyLight 633 (column Chaperones)
[8] = target: Hsp70 conjugated with DyLight 633; assay: flow cytometry of HEK293 cells displaying the IgG, double-stained with Hsp70-DyLight 633 and anti-human Fc PE

Measured: binding

B1: Briakinumab (antibody, V domains shown)
VH: QVQLVESGGGVVQPGRSLRLSCAASGFTFSSYGMHWVRQAPGKGLEWVAFIRYDGSNKYYADSVKGRFTISRDNSKNTLYLQMNSLRAEDTAVYYCKTHGSHDNWGQGTMVTVS
VL: QSVLTQPPSVSGAPGQRVTISCSGSRSNIGSNTVKWYQQLPGTAPKLLIYYNDQRPSGVPDRFSGSKSGTSASLAITGLQAEDEADYYCQSYDRYTHPALLFGTGTKVTVLGQP
binds: all assays above
